No constants are given. Whether binding was seen depends on the method and setting. Binding seen in cells or lysates may run through a third protein. Here binding means that the protein was enriched with, or labelled near, the bait; the list need not be complete.
Biological target: P. berghei ICM1 tagged with HA3 (P. berghei)
Assay: affinity purification with mass spectrometry

B1: P. berghei cGMP-dependent protein kinase (enzyme, UniProt A0A509AKL0 1-856)
chain: MDDDEIIPKKNHPSNERNKKKAILSHEDFTGEDSLMENHLELRDKLTEDIVTIKASLKNNLVCSTLNENEILALSNYMQFFVFKSGDMVIKQGEKGSYFFIINSGKFDVYVNDKKVKTLTKGSSFGEAALIHNTQRSATIKAGTNGTLWGVQRSTFRATLKQLSNRNFNENRSFIDSVSVFDMLTEAQKNMITNACVIQNFKPGETIVKQGDYGDVLYILKDGKATVYINDEEIRVLEKGSYFGERALLYDEPRSATIIAKEVTSCASICRKLLNVVLGNLQVVLFRNIMTEALQQSEIFKQISPDQLNDLADTAIVRDYPANYNILHKDKIKSVKYIIVLEGKVELFLDDESIGILTRGKSFGDQYVLNQKQKFKHTLKSLEVCKIALITESCLADCLGNNNIDASIDYNNKKSIIKKMYIFRYLTDKQCNLLIEAFKTTRYEEGDYIIQEGEVGSRFYIIKAGEVEIVKNNKRLRTLGKNDYFGERALIYDEPRTASVISTVNNLECWYVDKSVFLQIIEGPMLAHLEERIKMQDTKVEMSELLTERIIGRGTFGIVKLVLHEPTKIRYALKCVSKKSIIELNQQNNIKLEREITAENDHPFIIRLVRTFKDSKYFYFLTELVTGGELYDAIRKLGLLSRSQAQFYLGSIILAIEYLHERSIVYRDLKPENILLDKQGYVKLIDFGCAKKIHGRSYTLVGTPHYMAPEVILGKGYGCTVDIWAFGVCLYEFICGPLPFGNDQEDQLEIFRDILTGQLTFPDYVTDTDSINLIKRLLCRLPQGRIGCSINGFKDIKENSFFADFDWDRLAGRLLEPPLISKSETYAEDIDVKQIEQEEEDNANTEIDDENWDIDF
Which binding does the source give for B1 here?
Its binding is “binds”.
